Assay results published in PubChem BioAssay AID330 (DTP/NCI, 2004).
The list does not hold the whole screen: it is rich in T/C values a quarter to a half above the control, in often repeated tests (any T/C) and in doses without a T/C. Other doses and runs of a compound stand elsewhere. T/C: endpoint of the treated group in % of that of the vehicle group. Some entries give survivors of the animals treated and no T/C: the source files T/C as zero there, which appears to mark a toxic dose or a test without result, not a measured value. Some survivor counts are full or nearly so, which does not show that the dose was tolerated: the source hardly ever lists a survival T/C far under the control, and the zero likely stands for such cases as well. Survivors were counted at the toxicity check, usually on the fifth day, unless a day is given; later deaths do not show. Schedule codes are those of the source, taken here to give the interval after Q, in days (D) or hours (H), and the number of doses after X. Some doses were run more than once; the values are given in rising order. For survival time, the PubChem record calls one and a half times the control and up active, and a quarter to a half above the control has no call in these data; cut-offs in other NCI protocols can differ. Some T/C values carry the count of animals alive at the toxicity check (mostly the fifth day); without a count, all were alive then.

System: P388 leukemia ip, CD2F1 mice, survival T/C
Assay: NCI In Vivo Anticancer Drug Screen. Data for tumor model P388 Leukemia (intraperitoneal) in CD2F1 (CDF1) mice
Conditions: T/C endpoint: median survival time, higher T/C = longer survival
[1] = dose: 12.5 mg/kg/injection, schedule: Q01DX005 (ip), vehicle: saline with Tween-80
[2] = dose: 240.0 mg/kg/injection, schedule: Q01DX005 (ip), vehicle: saline with Tween-80

Q: With `COC(=O)c1ccc(SCC(=O)c2ccc([N+](=O)[O-])o2)cc1` as the molecule, how does the survivor count (dose: 200.0 mg/kg/injection, schedule: Q01DX009 (ip), vehicle: suspension in saline) read?
A: 5 of 6

Q: For `CC(C)=CCc1ccc2c(c1)CCCN2C`, which survivor count (dose: 400.0 mg/kg/injection, schedule: Q04DX002 (ip), vehicle: saline with Tween-80) is on record?
A: 0 of 6

Q: What does the source list for `c1cc2[nH]c3ccncc3c2cn1`?
A: survivor count (dose: 100.0 mg/kg/injection, schedule: Q01DX009 (ip), vehicle: saline with Tween-80): 0 of 6; survivor count (dose: 200.0 mg/kg/injection, schedule: Q01DX009 (ip), vehicle: saline with Tween-80): 0 of 6

Q: With `S=C(N/N=C1/CCCC/C1=N/NC(=S)N1CCOCC1)N1CCOCC1` as the molecule, how does the T/C (dose: 6.25 mg/kg/injection, schedule: Q01DX005 (ip), vehicle: saline with Tween-80) read?
A: 96, 106, 116 [5 of 6 alive], 118 % of control

Q: What about the T/C [1] of the same molecule?
A: 86 and 123 % of control

Q: And the survivor count [1]?
A: 4 of 5 and 5 of 5

Q: And the survivor count (dose: 25.0 mg/kg/injection, schedule: Q01DX005 (ip), vehicle: saline with Tween-80)?
A: 4 of 5, 5 of 6, 5 of 5

Q: What about the survivor count (dose: 50.0 mg/kg/injection, schedule: Q01DX005 (ip), vehicle: saline with Tween-80) of the same molecule?
A: 1 of 5

Q: And the survivor count (dose: 100.0 mg/kg/injection, schedule: Q01DX005 (ip), vehicle: saline with Tween-80)?
A: 0 of 5

Q: What about the survivor count (dose: 200.0 mg/kg/injection, schedule: Q01DX005 (ip), vehicle: saline with Tween-80) of the same molecule?
A: 0 of 5

Q: How did the T/C [2] turn out when `COc1cccc(C(c2cc3c(cc2O)OCO3)N2CCOCC2)c1O` (configuration not stated) was run?
A: 134 % of control

Q: What about the T/C (dose: 480.0 mg/kg/injection, schedule: Q01DX005 (ip), vehicle: saline with Tween-80) of the same molecule?
A: 134 % of control

Q: For `CCOC(=O)c1ccc(NN=NCCF)cc1`, which survivor count (dose: 50.0 mg/kg/injection, schedule: Q01DX005 (ip), vehicle: distilled water + Tween-80) is on record?
A: 0 of 5 and 3 of 6

Q: What about the survivor count (dose: 100.0 mg/kg/injection, schedule: Q01DX005 (ip), vehicle: distilled water + Tween-80) of the same molecule?
A: 0 of 6

Q: What about the survivor count (dose: 200.0 mg/kg/injection, schedule: Q01DX005 (ip), vehicle: distilled water + Tween-80) of the same molecule?
A: 0 of 6

Q: `N=C(N)Cl` was tested. Which survivor count (dose: 60.0 mg/kg/injection, schedule: Q01DX005 (ip), vehicle: saline) did it give?
A: 6 of 6

Q: And the survivor count (dose: 120.0 mg/kg/injection, schedule: Q01DX005 (ip), vehicle: saline)?
A: 6 of 6

Q: What about the survivor count (dose: 240.0 mg/kg/injection, schedule: Q01DX005 (ip), vehicle: saline) of the same molecule?
A: 0 of 6

Q: Which survivor count (dose: 200.0 mg/kg/injection, schedule: Q01DX009 (ip), vehicle: saline) does the source give for `O=C(CCl)NCCCl` here?
A: 3 of 6

Q: For `Cc1cc(C)nc(NS(=O)(=O)c2ccc(Nc3c4ccccc4nc4c([N+](=O)[O-])cccc34)cc2)n1`, which survivor count (dose: 60.0 mg/kg/injection, schedule: Q01DX005 (ip), vehicle: saline with Tween-80) is on record?
A: 6 of 6

Q: And the survivor count (dose: 120.0 mg/kg/injection, schedule: Q01DX005 (ip), vehicle: saline with Tween-80)?
A: 6 of 6

Q: What about the survivor count [2] of the same molecule?
A: 6 of 6

Q: `Cc1ccc2cccc(C(=O)N(C)C)c2[n+]1C` was tested. Which survivor count (dose: 0.62 mg/kg/injection, schedule: Q04DX002 (ip), vehicle: saline) did it give?
A: 0 of 6

Q: And the survivor count (dose: 1.25 mg/kg/injection, schedule: Q04DX002 (ip), vehicle: saline)?
A: 0 of 6

Q: And the survivor count (dose: 2.5 mg/kg/injection, schedule: Q04DX002 (ip), vehicle: saline)?
A: 0 of 6

Q: And the survivor count (dose: 12.5 mg/kg/injection, schedule: Q04DX002 (ip), vehicle: saline)?
A: 0 of 6

Q: What about the survivor count (dose: 25.0 mg/kg/injection, schedule: Q04DX002 (ip), vehicle: saline) of the same molecule?
A: 0 of 6

Q: And the survivor count (dose: 50.0 mg/kg/injection, schedule: Q04DX002 (ip), vehicle: saline)?
A: 0 of 6

Q: And the survivor count (dose: 125.0 micrograms/kg/injection, schedule: Q04DX002 (ip), vehicle: saline)?
A: 3 of 6

Q: `Cc1cc(=O)n2[nH]cnc2n1` was tested. Which survivor count (dose: 12.5 mg/kg/injection, schedule: Q01DX009 (ip), vehicle: Klucel (hydroxypropylcellulose) (HPC)) did it give?
A: 6 of 6

Q: And the T/C (dose: 50.0 mg/kg/injection, schedule: Q01DX009 (ip), vehicle: Klucel (hydroxypropylcellulose) (HPC))?
A: 86 [5 of 6 alive], 96, 98, 100, 116 % of control

Q: And the T/C (dose: 100.0 mg/kg/injection, schedule: Q01DX009 (ip), vehicle: Klucel (hydroxypropylcellulose) (HPC))?
A: 94, 99, 100, 111, 124 % of control

Q: With `CS(C)=O` as the molecule, how does the survivor count (dose: 3.0 grams/kg/injection, schedule: Q01DX009 (ip), vehicle: saline) read?
A: 3 of 6

Q: Which T/C (dose: 1.56 mg/kg/injection, schedule: Q01DX009 (ip), vehicle: other) does the source give for `COc1cccc2c1C(=O)c1c(O)c3c(c(O)c1C2=O)C[C@@](O)(C(O)CO)C[C@@H]3OC1CC(NC(=O)C(F)(F)F)C(O)C(C)O1` (some centres not stated) here?
A: 128 and 130 % of control

Q: And the T/C (dose: 6.25 mg/kg/injection, schedule: Q01DX009 (ip), vehicle: other)?
A: 138 and 142 % of control

Q: What about the T/C (dose: 12.5 mg/kg/injection, schedule: Q01DX009 (ip), vehicle: other) of the same molecule?
A: 142 and 149 % of control
